No constants are given. Whether binding was seen depends on the method and setting. Some binding calls cover weakened binding; strength is not graded here.

Chains of the proteins cited; added tags and fusions are not shown. Lines headed by an entry give the natural chain unless they say otherwise; changes in a name come on top.
UniProt Q9Y5K2: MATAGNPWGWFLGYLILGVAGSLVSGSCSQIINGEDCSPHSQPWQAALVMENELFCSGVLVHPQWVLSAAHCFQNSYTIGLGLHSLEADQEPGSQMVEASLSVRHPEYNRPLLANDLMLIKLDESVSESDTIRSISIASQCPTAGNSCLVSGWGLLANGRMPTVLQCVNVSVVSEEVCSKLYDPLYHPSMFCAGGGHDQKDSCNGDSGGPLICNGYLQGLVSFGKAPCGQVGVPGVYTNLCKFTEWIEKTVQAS

Assay [1] addresses activated KLK4 (human KLK4, C-terminal His tag, pro-KLK4 activated with thermolysin) (human) (UniProt Q9Y5K2). Description: X-ray crystal structure of the complex (legend of FIG. 6).
Assay [2] has the same target. Put plainly: X-ray crystal structure of the complex.

B1: KLK4/KLK8 inhibitory peptide K41043 (designed binder)
chain: GSGMKETAAAKFERQHMDSPDLGTDDDDKAMADIGSANSDPQFGLFSKYRTPNCRRYSIHGCNRMYAPVCGSDMSTYANECTLCMKIREGGHNIKIIRNGPCGASAAA
Take B1: the binding entry in assay [1] and in assay [2] was “binds” in each case.

Values taken from patent publication US20200207837A1.
